For at least one compound, name, drawing or mass did not settle the structure.
Test system: E. coli XL2 Blue expressing GFP
Assay: GFP expression to monitor kanamycin sensitivity on compartmentalized flow-through substrate
Type: cell-based
Conditions: various concentrations of kanamycin in 1% Metaphor agarose, triplicate, FIG. 6

## NC[C@H]1O[C@H](O[C@H]2[C@H](O)[C@@H](O[C@H]3O[C@H](CO)[C@@H](O)[C@H](N)[C@H]3O)[C@H](N)C[C@@H]2N)[C@H](O)[C@@H](O)[C@@H]1O [Kanamycin, kanamycin]
  effect on viability using a GFP reporter: could dearly be detected

From patent US7419778B2, “Method for high throughput cell-based assays using versatile living microarrays” (PameGene B.V., priority 2002, dated 2008)
